This passage reports binding results from article doi:10.1101/2020.01.01.892539.

Sequences of proteins named here, by UniProt entry; tags and fusion partners are left off. Residues count along the entry.
UniProt P20029, residues 20-655: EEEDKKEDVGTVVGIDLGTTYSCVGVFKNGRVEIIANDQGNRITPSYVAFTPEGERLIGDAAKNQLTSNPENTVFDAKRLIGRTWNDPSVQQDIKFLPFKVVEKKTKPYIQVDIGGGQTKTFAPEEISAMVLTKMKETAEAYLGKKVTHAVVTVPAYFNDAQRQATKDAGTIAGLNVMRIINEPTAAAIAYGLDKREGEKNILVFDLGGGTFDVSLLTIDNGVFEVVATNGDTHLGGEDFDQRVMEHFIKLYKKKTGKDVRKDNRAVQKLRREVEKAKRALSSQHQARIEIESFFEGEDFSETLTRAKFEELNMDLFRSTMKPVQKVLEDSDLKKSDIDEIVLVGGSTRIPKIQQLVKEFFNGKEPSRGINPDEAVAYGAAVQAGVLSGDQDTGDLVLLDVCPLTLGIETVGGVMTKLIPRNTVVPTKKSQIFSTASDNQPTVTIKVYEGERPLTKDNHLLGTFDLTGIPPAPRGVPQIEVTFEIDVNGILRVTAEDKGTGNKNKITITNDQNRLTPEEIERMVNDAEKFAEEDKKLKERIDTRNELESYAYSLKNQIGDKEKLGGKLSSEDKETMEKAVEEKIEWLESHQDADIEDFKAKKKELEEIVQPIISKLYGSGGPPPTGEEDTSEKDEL
UniProt Q99KV1, residues 23-358: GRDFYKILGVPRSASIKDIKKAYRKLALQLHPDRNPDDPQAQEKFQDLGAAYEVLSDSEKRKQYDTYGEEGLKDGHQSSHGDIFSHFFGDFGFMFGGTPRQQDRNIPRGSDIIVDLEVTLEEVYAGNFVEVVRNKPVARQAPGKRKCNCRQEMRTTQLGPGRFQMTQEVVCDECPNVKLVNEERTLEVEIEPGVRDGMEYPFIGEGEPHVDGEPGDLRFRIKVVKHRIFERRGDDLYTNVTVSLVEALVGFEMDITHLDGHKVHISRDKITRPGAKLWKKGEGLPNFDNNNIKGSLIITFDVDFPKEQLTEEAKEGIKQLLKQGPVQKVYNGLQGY
UniProt P27773, residues 25-505: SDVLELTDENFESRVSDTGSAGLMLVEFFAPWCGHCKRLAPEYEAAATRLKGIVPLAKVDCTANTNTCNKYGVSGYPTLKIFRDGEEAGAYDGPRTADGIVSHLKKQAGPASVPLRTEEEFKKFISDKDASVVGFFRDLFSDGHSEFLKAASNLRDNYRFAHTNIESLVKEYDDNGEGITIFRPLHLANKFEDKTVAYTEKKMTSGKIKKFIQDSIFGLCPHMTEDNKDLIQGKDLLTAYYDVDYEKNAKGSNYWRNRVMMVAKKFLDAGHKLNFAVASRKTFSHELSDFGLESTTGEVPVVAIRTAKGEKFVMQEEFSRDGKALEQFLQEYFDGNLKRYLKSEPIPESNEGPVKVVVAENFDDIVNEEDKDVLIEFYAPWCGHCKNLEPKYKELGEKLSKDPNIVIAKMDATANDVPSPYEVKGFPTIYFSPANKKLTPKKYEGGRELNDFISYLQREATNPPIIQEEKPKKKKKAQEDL

This test has as its target BiP-FLAG (BiP/GRP78 with a 3xFLAG tag inserted just upstream of the KDEL signal) (mouse) (UniProt P20029). Put plainly: co-IP.

No constants are given. Whether binding was seen depends on the method and setting. Binding seen in cells or lysates may run through a third protein. Some entries that bind do so weakly or less than the wild type.

As for ERdj3 (from UniProt Q99KV1 23-358), the binding entry is reported as “binds”.
Then PDIA3 (from UniProt P27773 25-505), with “no binding”.
